Broadly, the AC50 is the concentration giving half of the maximal activity seen. Read a low AC50 as greater potency.

The list shows a part of the results. Shown are side measurements of this screen, not its main read-out; they come without a call. The list favours compounds with an active or inconclusive main result. The note in brackets gives the kind of curve behind each potency; many fits are weak.

The test can be described thus: qHTS Assay for Lipid Storage Modulators in Drosophila S3 Cells.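 For cell number change: cells counted by Cell Tracker Red CMTPX staining in the red channel.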 The note with it: BODIPY lipid droplet fluorescence, 18-24 h; for cell number change: measured here: cell count max response, cells fed with added oleic acid. The method, boiled down:
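Laser-scanning cytometry quantifies lipid droplet accumulation (500–530 nm total intensity; droplet/cell object ratio) in oleic acid-fed (400 uM added) Drosophila S3 cells treated with a concentration series. 20 uM Triacsin C defined 100% inhibition.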
(In general: qHTS replaces the single test concentration by a dilution series.)

Setting [1] is: measured here: lipid fluorescence (Fed channel) AC50, cells fed with added oleic acid.
[2] abbreviates: measured here: cell number channel AC50, cells fed with added oleic acid.

`Cc1ccc(N2CCN(S(=O)(=O)c3ccc4c(c3)oc(=O)n4C)CC2C)cc1` (stereo unspecified): the cell number change was -12.5%. Under setting [1], the AC50 is 29.1 µM [falling, single point].
Take `CCOC(=O)N1CCN(C(=O)CSc2nc3c([nH]c4ccccc43)c(=O)n2CCOC)CC1`: the cell number change is -25.2%. Under setting [2], the concentration at half-maximal activity (AC50) is 0.92 µM [falling, partial curve].
With `COc1ccc(CCN2CC(C(=O)N(C)C3CCOCC3)CCC2=O)cc1` (stereo unspecified), under setting [1], the AC50 is 16.4 µM [rising, single point].
As for `CNC(=O)COC(=O)c1ccccc1Oc1ccccc1`, the cell number change was 30.2%. In addition, the AC50 under setting [2] is 11.6 µM [rising, single point].
With `CCN(CC)c1ccc2c(c1)oc(=O)c1c(Cl)cc(=O)oc12`, the AC50 under setting [2] is 1.46 µM [rising, partial curve] and the AC50 under setting [1] is 0.259 µM [rising, partial curve, poor fit].
As for `Cc1ccc(/C=N/Nc2cc(C)nc(N3CCOCC3)n2)cc1`, the cell number change turned out to be 12.3%. Also, the AC50 under setting [1] was 0.164 µM [rising, full curve, poor fit].
As for `CCCCc1ccc(/C(C)=N/NC(=O)C2CCCC2)cc1`, the cell number change is -20.3%.
`CSc1nc(Sc2ccc(Cl)cc2)c2ccccc2n1`: the cell number change was -18.7%. Moreover, the concentration at half-maximal activity (AC50) under setting [1] is 5.17 µM [falling, partial curve].
With `Cc1ccc(C2(c3ccccc3)NC(=O)N(CC(=O)NC3CCS(=O)(=O)C3)C2=O)cc1C` (stereo unspecified), the cell number change is -20.6%.
Regarding `C=CCOc1cccc(CNc2ccc3[nH]c(=O)[nH]c3c2)c1`, the cell number change worked out at 78.9%. For the same molecule, the concentration at half-maximal activity (AC50) under setting [2] is 29.1 µM [rising, single point]. Also, the AC50 under setting [1] is 29.1 µM [rising, single point].
Take `Cc1ccc([N+](=O)[O-])cc1Nc1nc(N2CCOCC2)nc(N2CCOCC2)n1`: the cell number change is -17.2%. Also, the half-maximal activity concentration (AC50) under setting [1] is 2.06 µM [rising, partial curve].
`COc1cc(NC(=O)C/C(C)=N/NC(=O)C2CCCCC2)c(OC)cc1Cl`: the cell number change is 14.3%. Also, under setting [1], the AC50 is 0.206 µM [rising, single point].
For the molecule `CC(NC(=O)c1ccccc1)C(=O)N/N=C/c1cccc([N+](=O)[O-])c1` (stereo unspecified), the cell number change is 37.6%. Further, the AC50 under setting [2] is 2.31 µM [rising, partial curve]. Further, under setting [1], the half-maximal activity concentration (AC50) was 6.51 µM [rising, full curve].
On to `CCOC(=O)CNC(=O)C1COc2ccccc2O1` (stereo unspecified), for which the cell number change was -14.9%. Under setting [2], the half-maximal activity concentration (AC50) is 0.411 µM [falling, partial curve, poor fit]. Under setting [1], the AC50 is 0.461 µM [falling, full curve, poor fit].
As to `CC1Cc2cc(/C=C3/SC(=S)NC3=O)ccc2O1` (stereo unspecified), the cell number change came out at 12.9%. Besides, under setting [1], the AC50 is 0.00517 µM [falling, full curve, poor fit].
`CC(=O)c1ccccc1NC(=O)COC(=O)/C=C/c1ccc(C)o1`: the cell number change was 47.8%. In addition, the half-maximal activity concentration (AC50) under setting [2] is 29.1 µM [rising, single point].
Take `COc1cccc(C(=O)Nc2nnc(-c3ccc(Cl)cc3)o2)c1`: the cell number change is -14.1%. Moreover, under setting [1], the AC50 was 29.1 µM [falling, single point].
In the case of `CC(C)(C)NS(=O)(=O)c1ccc(NC(=O)CS(=O)(=O)Cc2ccccc2)cc1`, the cell number change was -6.07%. In addition, the AC50 under setting [1] was 29.1 µM [falling, single point].
Take `Cc1cccc(N(Cc2ccccc2)C(=O)CCl)c1`: the cell number change is -0.24%. Further, under setting [1], the half-maximal activity concentration (AC50) was 6.51 µM [falling, single point].
With `FC(F)(F)c1nnc2ccc(N3CCCCCC3)nn12`, the cell number change was -29.6%.
Consider `COc1ccc(N2CCN(C(=O)c3ccncc3)CC2)cc1`, for which the AC50 under setting [2] was 6.51 µM [rising, single point].
For the molecule `CC1CCN(c2cc(N3CCN(C(=O)c4ccc(F)c(F)c4)CC3)c([N+](=O)[O-])cc2F)CC1`, the cell number change worked out at 5.18%. The concentration at half-maximal activity (AC50) under setting [1] is 6.51 µM [falling, single point].
With `CCOc1nc(C)ccc1-c1noc(-c2cccnc2)n1`, the cell number change amounted to 8.29%.
With `O=C(Nc1ccccc1)c1nccn1Cc1ccc(F)cc1`, the cell number change came to 61.7%.
Consider `O=C(COC(=O)c1cc(=O)c2ccccc2o1)NC1CCCC1`, for which the cell number change is 1.22%. In addition, under setting [1], the concentration at half-maximal activity (AC50) was 11.6 µM [falling, single point].
`COc1ccccc1S(=O)Cc1ccc(C(=O)O)o1` (stereo unspecified): the cell number change turned out to be 8.39%. Moreover, the AC50 under setting [1] is 29.1 µM [rising, single point].
On to `C=C(C)Cn1c(Sc2nc3ccccc3[nH]2)nc2c1c(=O)[nH]c(=O)n2C`, for which the cell number change came to 48.7%. Moreover, the AC50 under setting [2] is 32.6 µM [rising, single point]. Further, the AC50 under setting [1] is 3.66 µM [falling, single point].
Regarding `CC1CCCCN1C(=O)C1CCN(S(=O)(=O)c2ccc(-n3cnnn3)cc2)CC1` (stereo unspecified), the cell number change was -5.26%. Further, the concentration at half-maximal activity (AC50) under setting [2] is 7.31 µM [rising, single point].
As for `O=C1[C@H]2[C@@H](c3ccc(F)cc3)N3C(=O)N(c4ccc(Br)cc4)C(=O)[C@@]3(Cc3ccc(Cl)cc3)[C@H]2C(=O)N1C1CCCCC1`, the cell number change turned out to be 86.2%. Also, the concentration at half-maximal activity (AC50) under setting [2] is 23.1 µM [rising, partial curve]. Further, the concentration at half-maximal activity (AC50) under setting [1] is 16.4 µM [falling, partial curve].
In the case of `CC1CCCN(C(=O)CSc2nnc(-c3cccs3)o2)C1` (stereo unspecified), the cell number change was 43.6%. Further, the AC50 under setting [1] was 29.1 µM [falling, single point].
For `CC(=O)c1ccc(N(C(=O)CNC(=O)c2ccco2)C(C(=O)NC2CCCC2)c2ccncc2)cc1` (stereo unspecified), the cell number change is -21.9%. Also, the concentration at half-maximal activity (AC50) under setting [1] is 29.1 µM [rising, single point].
In the case of `O=c1[nH]cc(NCCc2ccccc2)c(=O)[nH]1`, the cell number change was -67.4%. Moreover, the AC50 under setting [2] is 29.1 µM [falling, single point].
`COc1ccc(Cl)cc1/C=C/c1ccc2cccc(O)c2n1`: the cell number change is -12.4%.
For the molecule `Cc1ccc(C2(C(F)(F)F)NC(=O)N3N=C4CCCCCN4C3=C2C#N)cc1` (stereo unspecified), the cell number change is -3.51%. Moreover, under setting [1], the AC50 was 6.51 µM [falling, single point].
Regarding `Cc1ccccc1NC(=O)CSc1nc(O)cc(=O)n1C`, the cell number change amounted to 28.1%. Besides, under setting [1], the AC50 was 10.3 µM [rising, partial curve, poor fit].
For the molecule `O=C(COC(=O)c1cnc(Cl)c(Cl)c1)NC1CCCCCC1`, the cell number change was determined as 14.8%. Further, under setting [1], the half-maximal activity concentration (AC50) is 2.31 µM [rising, single point].
Turning to `c1ccc(C[C@H]2CN=C(Nc3ccccc3)N2CCC2CCCC2)cc1`, the cell number change came to 24.2%. Besides, the concentration at half-maximal activity (AC50) under setting [2] is 0.231 µM [rising, full curve, poor fit].
Turning to `COc1ccccc1Nc1nnc(SCc2cc(=O)n3ccsc3n2)s1`, the cell number change stood at 9.49%.
With `CSCC(=O)N1CCCC(N2CCN(c3cccc(C(F)(F)F)c3)CC2)C1` (stereo unspecified), under setting [1], the AC50 is 11.6 µM [falling, partial curve].
For `O=C(CNC(=O)c1ccc(Br)cc1)N=Nc1c(O)[nH]c2ccc([N+](=O)[O-])cc12`, the cell number change was 18.9%. For the same molecule, the half-maximal activity concentration (AC50) under setting [1] is 29.1 µM [rising, single point].
For `CNC(=O)CC1C(=O)N(Cc2ccccc2)C(=S)N1NC(=O)c1cccc(F)c1` (stereo unspecified), the cell number change is 32.6%. Further, the AC50 under setting [2] was 25.9 µM [rising, single point].
In the case of `O=C(NCC1COc2ccccc2O1)c1ccco1` (stereo unspecified), the cell number change worked out at 17.9%. For the same molecule, the concentration at half-maximal activity (AC50) under setting [1] was 29.1 µM [rising, single point].
As to `COc1ccc(CNC(=O)C2CSCCS2)cc1` (stereo unspecified), the cell number change was -13.8%. Besides, the concentration at half-maximal activity (AC50) under setting [2] was 6.51 µM [falling, single point]. The half-maximal activity concentration (AC50) under setting [1] was 6.51 µM [falling, single point].
On to `Cc1ccc(S(=O)(=O)CCSC(=N)N)cc1`, for which the cell number change was -26.9%. Moreover, under setting [1], the AC50 was 23.1 µM [falling, partial curve, poor fit].
For `COc1ccc(CC(NC(C)=O)C(=O)NC2CCN(C(=O)c3ccncc3)CC2)cc1OC` (stereo unspecified), the cell number change is -24.4%. In addition, the half-maximal activity concentration (AC50) under setting [1] is 5.17 µM [rising, single point].
Consider `CCOC(=O)c1cc2c(=O)n3cccc(C)c3nc2n(Cc2ccco2)c1=NC(=O)c1cccnc1`, for which the AC50 under setting [1] was 6.51 µM [rising, single point].
Turning to `Cc1ccc(S(=O)(=O)N2CCC(C(=O)NNC(=O)c3ccccc3)CC2)cc1`, the cell number change came to 26.4%.
As to `Cc1cc(C(=O)N2CCN(Cc3ccc4c(c3)OCO4)CC2)cs1`, the cell number change is -8.88%. Further, under setting [1], the AC50 was 1.16 µM [rising, single point].
`O=C1/C(=C/c2ccc(O)cc2)SC(=S)N1CC1CCCO1` (stereo unspecified): the cell number change is -24.6%. Under setting [1], the AC50 was 29.1 µM [falling, single point].
Turning to `CN(C)S(=O)(=O)N1CCN(c2ccnc3cc(Cl)ccc23)CC1`, the cell number change is -17.8%. Also, under setting [1], the half-maximal activity concentration (AC50) was 16.4 µM [falling, single point].
For `CC(C)C(NC(=O)c1ccccc1F)C(=O)NCc1ccccc1` (stereo unspecified), the cell number change is -5.65%. The AC50 under setting [1] was 0.411 µM [falling, single point].
Regarding `Cn1c(=O)c2c(nc(CN3CCC(C(N)=O)CC3)n2CCc2ccccc2)n(C)c1=O`, the cell number change turned out to be 7.24%. Under setting [1], the AC50 was 0.731 µM [falling, single point].
As for `C=CCNC(=O)c1ccc(-c2ccc([N+](=O)[O-])cc2)o1`, the cell number change amounted to 65.6%. Moreover, the AC50 under setting [2] was 6.51 µM [rising, partial curve]. Under setting [1], the half-maximal activity concentration (AC50) was 29.1 µM [rising, single point].
With `O=c1oc2c3c(nn2c2ccccc12)CCCC3`, the cell number change was found to be 6.26%.
With `Cc1ccc(N2CCN(C(=O)CCc3nc4ccccc4[nH]3)CC2)c(C)c1`, the cell number change was -0.832%. Also, the AC50 under setting [1] was 29.1 µM [falling, single point].
Consider `C/C(=C\c1ccccc1)C(=O)NCCN1CCOCC1`, for which the cell number change is -44.8%.
With `O=C(c1cccc(S(=O)(=O)N2CCOCC2)c1)N1CCN(S(=O)(=O)c2cccc([N+](=O)[O-])c2)CC1`, under setting [2], the AC50 was 5.17 µM [rising, single point].
In the case of `CN1CCC(=NNC(=O)C(=O)Nc2ccc(F)cc2)CC1`, the cell number change stood at 8.1%.
Consider `COC(=O)c1cc(NC(=O)CN(C)Cc2ccccc2)cc(C(=O)OC)c1`, for which the cell number change turned out to be 11.5%. Moreover, under setting [2], the AC50 is 6.51 µM [falling, single point]. In addition, under setting [1], the AC50 is 6.51 µM [falling, single point].
For `COc1ccc(-n2nc3c(c2NC(=O)c2ccccc2S(=O)(=O)C(F)F)CS(=O)(=O)C3)cc1`, the cell number change worked out at 19.7%. For the same molecule, under setting [1], the AC50 was 20.6 µM [rising, single point].
Turning to `COc1ccc(C(=O)N2CCN(c3c(C)cccc3C)CC2)cc1OC`, the cell number change came out at 4.17%. The AC50 under setting [1] was 29.1 µM [rising, partial curve].
Turning to `CC(=O)N1c2ccc(S(=O)(=O)N3CCCC(C(=O)N4CCCCC4)C3)cc2CC1C` (stereo unspecified), the cell number change is -0.599%. Further, the concentration at half-maximal activity (AC50) under setting [1] is 0.58 µM [falling, single point].

For the origin of these results see PubChem BioAssay AID2685 (National Center for Advancing Translational Sciences (NCATS), 2010).
